We go through three substances from patent US9029097.

By UniProt entry, the sequences of proteins in these tests, tags left out. Where a name states a change or a piece, a line headed by the entry shows the natural chain unless it says otherwise. Residues count along the entry.
UniProt P08913: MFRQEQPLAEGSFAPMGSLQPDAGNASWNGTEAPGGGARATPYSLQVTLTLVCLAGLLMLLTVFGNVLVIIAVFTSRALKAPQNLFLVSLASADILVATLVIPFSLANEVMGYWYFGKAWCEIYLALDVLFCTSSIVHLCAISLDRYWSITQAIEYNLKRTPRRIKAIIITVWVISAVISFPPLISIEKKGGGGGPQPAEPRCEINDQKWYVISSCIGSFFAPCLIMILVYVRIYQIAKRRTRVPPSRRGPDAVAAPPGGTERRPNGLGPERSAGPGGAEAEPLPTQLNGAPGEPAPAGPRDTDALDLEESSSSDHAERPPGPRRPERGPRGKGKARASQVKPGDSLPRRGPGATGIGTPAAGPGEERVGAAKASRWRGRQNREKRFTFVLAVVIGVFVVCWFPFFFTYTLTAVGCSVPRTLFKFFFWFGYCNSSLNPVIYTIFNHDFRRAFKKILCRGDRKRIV
UniProt Q16602: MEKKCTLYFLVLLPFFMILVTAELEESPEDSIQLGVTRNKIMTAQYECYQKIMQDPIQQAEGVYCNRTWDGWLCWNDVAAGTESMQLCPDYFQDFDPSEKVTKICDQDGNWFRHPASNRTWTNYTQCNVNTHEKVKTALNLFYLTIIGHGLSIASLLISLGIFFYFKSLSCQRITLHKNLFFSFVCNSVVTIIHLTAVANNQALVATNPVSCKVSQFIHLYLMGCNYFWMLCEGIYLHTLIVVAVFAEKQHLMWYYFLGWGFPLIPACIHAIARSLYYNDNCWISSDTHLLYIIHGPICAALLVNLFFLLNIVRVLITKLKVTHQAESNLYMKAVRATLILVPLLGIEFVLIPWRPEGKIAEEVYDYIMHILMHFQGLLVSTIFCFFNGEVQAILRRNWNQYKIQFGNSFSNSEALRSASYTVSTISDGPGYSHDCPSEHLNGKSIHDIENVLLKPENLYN
UniProt O60894: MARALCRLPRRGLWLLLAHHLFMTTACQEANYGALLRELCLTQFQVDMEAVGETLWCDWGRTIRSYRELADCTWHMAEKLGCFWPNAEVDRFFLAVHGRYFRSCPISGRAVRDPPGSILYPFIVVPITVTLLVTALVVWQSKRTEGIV
UniProt P63096, residues 2-354: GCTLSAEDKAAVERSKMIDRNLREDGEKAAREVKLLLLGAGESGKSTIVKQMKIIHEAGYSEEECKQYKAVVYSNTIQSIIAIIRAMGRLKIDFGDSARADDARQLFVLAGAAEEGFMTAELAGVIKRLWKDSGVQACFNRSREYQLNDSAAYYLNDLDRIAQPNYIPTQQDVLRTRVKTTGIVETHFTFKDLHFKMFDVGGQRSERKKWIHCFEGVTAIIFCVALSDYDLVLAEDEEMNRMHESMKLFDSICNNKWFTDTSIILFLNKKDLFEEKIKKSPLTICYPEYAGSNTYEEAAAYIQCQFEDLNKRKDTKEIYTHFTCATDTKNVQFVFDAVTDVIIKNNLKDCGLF

Results are given in words; binding and its absence hold for the method and conditions named. Some entries that bind do so weakly or less than the wild type.

In test [1] the target is α2AAR-GFP10 (human) (UniProt P08913). Briefly: BRET2, HEK293T cells, α-adrenergic ligands.
For test [2], the target named is α2AAR-Venus (human) (UniProt P08913). Nature of the test: real-time BRET1, living cells.
Test [3] concerns the target CGRP-R (CRLR-YFP+RAMP1) (human) (UniProt Q16602+O60894). Briefly: BRET, living cells, 10 µM CGRP.
The target in test [4] is α2AAR-Venus (human) (UniProt P08913). Nature of the test: BRET1 and BRET2 measured in the same cells (Gαi1-91Rluc, α2AAR-Venus, GFP10-Gγ2).

Consider Gαi1-Rluc (from UniProt P63096 2-354), for which the binding result in test [1] was “binds”.

With “Gαi1-91Rluc (from UniProt P63096 1-91; P27652 1-311; P63096 92-354)”, the binding entry in test [2], in test [3] and in test [4] was “binds” each time.

As to “Gαi1-122Rluc (from UniProt P63096 1-122; P27652 1-311; P63096 123-354)”, the binding entry in test [2] and in test [3] was “binds” in each case.
